PubChem BioAssay AID686938 | Drosophila RNAi Screening Center | 2013
The deposit covers about 23,000 reagents; below is a random part of those with a known target gene and a result. Of all reagents, 75 (0.33%) were called active. 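Raw plate signals without normalisation; calls rest on plate z-scores that were not deposited; ratio present for only 364 wells.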 A number with no mark means an inactive call. Not stated in the record: the dose of the treatment.

Purpose: 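Looking for CRAC channel components and the factors controlling them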 (primary screen)
System: Drosophila S2R+ cells
Knock-down reagent: long dsRNA against Drosophila genes, about 0.25 µg dsRNA per well, roughly 10,000 cells
Time to read-out: 5 days of knock-down before the calcium assay
Treatment: thapsigargin (SERCA pump blocker) to empty calcium stores; entry signal taken 4 min after adding it
Measured: 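Duplicate raw fluo-4 intensities per well from a plate reader, at rest and four minutes after thapsigargin emptied calcium stores; entry-to-rest ratio filled for only some wells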
Scale: calcium entry signal: higher = stronger calcium signal after store depletion; entry to resting ratio: higher = more calcium entry relative to resting level; resting calcium signal: higher = higher resting calcium signal
Hit rule: 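Called when the plate z-score of the entry-to-rest ratio, mean of duplicates, falls below −3; wells with low overall dye signal (Fmax z below −2) or more than five off-targets excluded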
Calls: active = strongly reduced calcium entry; inactive = no strong reduction

Gene	DRSC id	calcium entry signal, replicate 1 (fluorescence units)	calcium entry signal, replicate 2 (fluorescence units)	entry to resting ratio	resting calcium signal, replicate 1 (fluorescence units)	resting calcium signal, replicate 2 (fluorescence units)
mRpL27 (mitochondrial ribosomal protein L27)	DRSC22568	4.49e7	4.27e7		1.97e7	1.59e7
Myo31DF (Myosin 31DF)	DRSC03376	4.67e7			2.21e7	
Myo31DF (Myosin 31DF)	DRSC22702	5.58e7	3.68e7		2.64e7	1.65e7
CG34331	DRSC20679	4.79e7	4.48e7		2.48e7	2.10e7
CG2611	DRSC02710	4.20e7			2.12e7	
Ptpmeg2 (Protein tyrosine phosphatase Meg2)	DRSC18277	4.34e7	5.92e7		2.15e7	2.81e7
Ptpmeg2 (Protein tyrosine phosphatase Meg2)	DRSC18278	4.27e7	5.20e7		2.09e7	2.51e7
Ptpmeg2 (Protein tyrosine phosphatase Meg2)	DRSC23303	5.00e7	3.55e7		2.53e7	1.62e7
CG31463	DRSC14346	4.37e7	3.28e7		2.20e7	1.73e7

The list goes on, starting with the last 3 of the part before.
Gene	DRSC id	calcium entry signal, replicate 1 (fluorescence units)	calcium entry signal, replicate 2 (fluorescence units)	entry to resting ratio	resting calcium signal, replicate 1 (fluorescence units)	resting calcium signal, replicate 2 (fluorescence units)
Ptpmeg2 (Protein tyrosine phosphatase Meg2)	DRSC18278	4.27e7	5.20e7		2.09e7	2.51e7
Ptpmeg2 (Protein tyrosine phosphatase Meg2)	DRSC23303	5.00e7	3.55e7		2.53e7	1.62e7
CG31463	DRSC14346	4.37e7	3.28e7		2.20e7	1.73e7
CG13585	DRSC04221	4.09e7	4.94e7		2.05e7	2.02e7
CG2811	DRSC04318	2.59e7	4.22e7		1.51e7	1.68e7
kcc (kazachoc)	DRSC04316	3.32e7			1.62e7	
kcc (kazachoc)	DRSC04516	4.16e7	4.45e7		2.05e7	2.08e7
Lipt2 (Lipoyl(octanoyl) transferase 2)	DRSC12338	3.86e7	4.38e7		1.72e7	2.38e7
Lipt2 (Lipoyl(octanoyl) transferase 2)	DRSC22610	3.64e7	3.39e7		2.14e7	1.60e7
PhKgamma (Phosphorylase kinase gamma)	DRSC20268	3.40e7	3.80e7		1.58e7	1.79e7
uncNacbeta	DRSC00326	2.31e7	1.88e7		1.17e7	1.03e7
Rcd7 (Reduction in Cnn dots 7)	DRSC10100	3.13e7	4.72e7		1.47e7	2.10e7
CDase (Ceramidase)	DRSC14932	2.98e7	4.12e7		1.63e7	1.90e7
CG31008	DRSC14028	3.92e7	4.24e7		1.80e7	1.82e7
CG9154	DRSC03150	5.24e7			3.04e7	
CG11382	DRSC18624	3.65e7	5.94e7	2.2	1.67e7	2.57e7
E(spl)m3-HLH (Enhancer of split m3, helix-loop-helix)	DRSC16694	2.40e7	4.38e7		1.56e7	2.33e7
E(spl)m3-HLH (Enhancer of split m3, helix-loop-helix)	DRSC23160	5.04e7	2.30e7		2.38e7	1.06e7
